In publication PMC3314965:
These are yes or no findings as the source states them, for the method shown. In cells and extracts the contact can be indirect. For some assays here: Binding calls can cover weak binding; strength is not graded here.

What was measured:
[1] = target: CoxIV, a cytochrome c oxidase subunit localized to the inner mitochondrial membrane (Xenopus laevis (endogenous in cultured retinal explants)); assay: proximity ligation; Duolink in situ PLA on fixed, permeabilised cultured retinal explants (RGC growth cones) from Xenopus embryos; pairs of mouse and rabbit primary antibodies; positive signal only when the two antibodies are within 40 nm
[2] = target: NFPC (Xenopus laevis (endogenous in cultured retinal explants)); assay: as above

binding [1]: binds | binding [2]: no binding
B1: lamin B2 (protein, UniProt P21910 1-623)
chain: MATTTPSRSTRSSMQSPARGTSTPLSPTRISRLQEKEELRHLNDRLAVYIDRVRALELENDRLMVKISEKEEVTTREVSGIKNLYESELADARKVLDETARERARLQIELGKFRSDLDELNKNYKKKDADLSTAQGRIKDLEALFHRSEAELGTALGEKRSLEAEVADLRAQLSKTEDAHRVAKKQLEKETLMRVDFENRMQSLQEEMDFRKNIYEEESRETRKRHERRIVEVDRGHHYDYESKLAQALDELRKQHDEQVKMYKEELEQTYQAKLDNIKRSSDHNDKAANTALEELTERRMRIETLGYQLSGLQKQANAAEERIRELEELLSSDRDKYRKLLDSKEREMAEMRDQMQQQLNEYQELLDVKLALDLEINAYRKLLEGEEERLKLSPSPESRVTVSRATSSSSSATRTSRSKRRRVEEEYEEGGASTGFGAGHSLGSSRITASEGSSRTITSGQSSTTRFHLSQQASATGSISIEEIDLEGKYVHLKNNSDKDQSLGNWRLKRKIGEEEEIVYKFTPKYVLKAGQSVKIYSADAGVAHSPPSILVWKNQSSWGTGSNIRTYLVNTEEEEVAVRTVTKSVLRNVEEEEDEDADFGEEDLFHQQGDPRTTSRGCSVM
